Measured values reported in publication PMC7171158.
These are yes or no findings as the source states them, for the method shown.

How the values were obtained:
[1] = target: λQ deletion variant lacking 36 residues at the N-terminus (λQ^Δ36) (phage λ) (UniProt P03047); assay: 15N NMR relaxation (rotation correlation time); 15N R1 and R2 of 15N-λQ^Δ36 at 298 K, 700.2 MHz (16.8 T); isotropic tumbling assumed; both purified
[2] = target: λQ deletion variant lacking 36 residues at the N-terminus (λQ^Δ36) (phage λ) (UniProt P03047); assay: SEC; analytical gel filtration, Superdex 75 10/300 GL; 20 mM Tris/HCl pH 7.5, 150 mM NaCl, 5% glycerol; 250 µg protein per run; standard curve; both purified
[3] = target: T1, antiterminator protein Q from phage λ (λQ), full length (phage λ) (UniProt P03047); assay: as above
T1 sequence: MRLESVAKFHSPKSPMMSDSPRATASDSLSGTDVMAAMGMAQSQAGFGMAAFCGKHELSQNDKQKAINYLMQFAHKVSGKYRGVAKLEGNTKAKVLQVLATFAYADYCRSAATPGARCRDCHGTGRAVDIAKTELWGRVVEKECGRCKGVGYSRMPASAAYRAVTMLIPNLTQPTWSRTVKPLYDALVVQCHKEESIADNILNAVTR

B1: λQ deletion variant lacking 36 residues at the N-terminus (λQ^Δ36) (domain or fragment, UniProt P03047 37-207)
chain: AMGMAQSQAGFGMAAFCGKHELSQNDKQKAINYLMQFAHKVSGKYRGVAKLEGNTKAKVLQVLATFAYADYCRSAATPGARCRDCHGTGRAVDIAKTELWGRVVEKECGRCKGVGYSRMPASAAYRAVTMLIPNLTQPTWSRTVKPLYDALVVQCHKEESIADNILNAVTR
binding [1]: no binding
binding [2]: no binding

B2: antiterminator protein Q from phage λ (λQ), full length (protein, UniProt P03047 1-207)
chain: MRLESVAKFHSPKSPMMSDSPRATASDSLSGTDVMAAMGMAQSQAGFGMAAFCGKHELSQNDKQKAINYLMQFAHKVSGKYRGVAKLEGNTKAKVLQVLATFAYADYCRSAATPGARCRDCHGTGRAVDIAKTELWGRVVEKECGRCKGVGYSRMPASAAYRAVTMLIPNLTQPTWSRTVKPLYDALVVQCHKEESIADNILNAVTR
binding [3]: no binding
